Assay results published in patent publication US9566264B2, “Combinations and methods” (Euthymics Bioscience, Inc., priority 2013, dated 2017).
Where a name gives a salt, the structure may show the parent alone. For at least one compound, name, drawing or mass did not settle the structure.

Test system: formalin-induced hind paw licking
Assay: Formalin paw test
Type: in vivo, mouse
Conditions: 40 mg/kg orally 1 hour before formalin; second phase (15-30 minutes); compared with morphine 30 mg/kg orally

Clc1ccc([C@]23CNC[C@H]2C3)cc1Cl [Amitifadine, (1R,5S)-(+)-1-(3,4-dichlorophenyl)-3-azabicyclo[3.1.0]hexane hydrochloride]
effectiveness in mouse formalin paw lick test model of persistent pain (paw licking time): as effective as morphine
